The supplement of paper PMC12764529
± gives the half width of the 95% confidence interval. The two proteases of the assay disagree for many of these sequences.

Legend:
[1] = folding stability dG unfold (combined trypsin and chymotrypsin); higher = more stable
Experimental: (§1)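 Folding stability of de novo designed mini-proteins (<80 aa, no Cys; designed by TrROS, TrMRF, ProteinMPNN and the joint model) was measured by cDNA display proteolysis with trypsin and chymotrypsin. Each protease was used at 11 concentrations in a threefold dilution series plus a no-protease condition. K50 was inferred by Bayesian fitting of sequencing counts, and dG unfold was derived against a sequence-predicted unfolded-state K50 (Tsuboyama et al. method). Sequences shown include variable-length N-terminal GS-type padding (SAGGSAGG...) inside a display construct carrying a PA tag. Rows were kept only if the AF2 dimer inter-PAE was >15, to exclude likely homo-oligomers.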

[2] = folding stability dG unfold from trypsin proteolysis; higher = more stable
Experimental: as §1

[3] = folding stability dG unfold from chymotrypsin proteolysis; higher = more stable
Experimental: as §1

Sequence | folding stability dG unfold [1] | folding stability dG unfold [2] | folding stability dG unfold [3]
SAGGSAGGSAGGSVIVTNSPEDADIVAGLLREVLSALVPEPATAENVPVVIEVVDDNVTSAGGSAGGSAGGS [r4_498_TrMRF] | 0.152 ± 0.094 kcal/mol | 1.07 ± 0.023 kcal/mol | –
SAGGSAGGSAGGSMIEVELTSPESGSLTIKVPPDSSYTVTIGSSPVKITVTPNEVVATPVSAGGSAGGSAGG [r7_510_JUSTAS] | 0.482 ± 0.12 kcal/mol | 1.34 ± 0.059 kcal/mol | –
SAGEELLREIAKKLNLPEGAEIVKVEIKVEEKDGRLRITITITVRNKETGELKTIEIEIEIELPEEEEESAG [r5_94_TrROS_Hall] | 4.01 ± 0.43 kcal/mol | 3.9 ± 0.27 kcal/mol | –
SAGGSAGGSSVTLVLPKAKTEEEARKAIEEEIRKLLPPGAKVEIRIEKNEDGEVRVVVRIEKPSAGGSAGGS [r20_122_TrROS_Hall] | 1.35 ± 0.11 kcal/mol | 2.1 ± 0.062 kcal/mol | –
SAGGSSISSSSPISITVEKVEVETTTTTFPGGEPPVPIGKPKEITVTITSRPLPNGTVLSSTTTVGSAGGSA [r2_218_JUSTAS] | 0.357 ± 0.056 kcal/mol | 1.19 ± 0.025 kcal/mol | –
SAGGSAGGSAGGLKPGDPVIIPIRIEMEHYDPGGGKPIHEHEFPITILIPPGQNPEEITFSAGGSAGGSAGG [r7_591_TrROS] | 0.61 ± 0.071 kcal/mol | 1.16 ± 0.057 kcal/mol | –
SAGGSAGGSAGGSMTRVFVRKPDYWLEVEEYPDPKNPDRIRLTVKKKIPLSEVTPEELASAGGSAGGSAGGS [r4_316_JUSTAS] | – | -0.0403 ± 0.26 kcal/mol | –
SAGGSAGGDLLKEALEQMPPGEEREINLEFEYYNPNGPPRKQNYTIRIKVDPKNNKMKVDIEPPSAGGSAGG [r6_712_TrROS] | 0.552 ± 0.54 kcal/mol | 1.45 ± 0.13 kcal/mol | –
SADIELEIFRLDDKIVIVMEQKQDDPDGKERPYYHVQTFELDPGNGKLQPKVYPFKSPADADDALKDGLSAG [r14_500_TrROS] | 0.596 ± 0.25 kcal/mol | – | 1.05 ± 0.24 kcal/mol
SAGGSAGGSSVAYVKDPNNPVPVKLPVEAVLEAIESGKPTDLKDPSGDEVVTITNPTDLVIEDSSAGGSAGG [r6_509_JUSTAS] | 0.323 ± 0.059 kcal/mol | 1.12 ± 0.075 kcal/mol | –
SPLGPGGVRVVLGEVRFERHPDGTVRVEAEFTIEVARPDGPGAVIRVRLEATVPPGGGLRVRVKEVEIRPSA [r9_838_TrMRF] | 4.71 ± 0.15 kcal/mol | 3.27 ± 0.12 kcal/mol | –
SAMKIKEIKIEKEGNTITIEVKIEKDGKEYLVKVRIEVKKDKNGKLIKKIEIEIYDKDGKKVLKLEIELSAG [r14_465_TrROS_Hall] | > 6 kcal/mol | 3.44 ± 0.41 kcal/mol | –
SAGGSAGGSKKKITVKIEEVKLNPETGKLVLVKIKLPDGKELVFKTPEEIENLPGAEFEVYELSAGGSAGGS [r20_192_TrROS_Hall] | 1.45 ± 0.27 kcal/mol | – | 1.47 ± 0.13 kcal/mol
SAGGMTPAVTETTIELPASDPEAAIAALRAAGWELLARERGPDGSVRMVFAAPTRRVTVDFVGPAAASAGGS [r16_170_JUSTAS] | 1.71 ± 0.032 kcal/mol | – | 2.03 ± 0.039 kcal/mol
SAGGSAGGSRTPIRARLRLPDNPAWFEATVDWVAPDGTVYAYIDTPNGERRRVDVILEAEFSGSAGGSAGGS [r12_118_TrMRF] | 0.942 ± 0.03 kcal/mol | – | 1.48 ± 0.034 kcal/mol
SAGGSAGGSAGEPVTVRVTAPDGGSRTITIPRETLIEAGITPSDIARALAELTGAEVETTSAGGSAGGSAGG [r11_829_TrMRF] | 0.783 ± 0.08 kcal/mol | – | 1.27 ± 0.035 kcal/mol
SAGGSAGGSAGGGLRDFVASGKPVLVRARGADGEVREVVVAPDEDVPLPGVLEVEVSDVSAGGSAGGSAGGS [r10_700_TrMRF] | 0.474 ± 0.082 kcal/mol | – | 1.08 ± 0.043 kcal/mol
SAGGSAGGSAGMKTVTETEFDPAAPVVTTTTSLVTLPPDGKPSITSTTTTTTAVAAPAAAASAGGSAGGSAG [r3_138_JUSTAS] | 1.03 ± 0.062 kcal/mol | – | 1.41 ± 0.038 kcal/mol
SAGGSAGGSAGGSGKTTVETVPGTGNVAGTTTTTTLPDGSLTSTTTTTAAVPAVDPAAASAGGSAGGSAGGS [r4_178_JUSTAS] | 1.03 ± 0.036 kcal/mol | – | 1.5 ± 0.045 kcal/mol
SAGGSAGGDGDFRVSIDPEELPDGQEYKISIQSPDGKPIAEIPIRIPLPPPKPERDDNGKPKPVSAGGSAGG [r6_487_TrROS] | 0.216 ± 0.099 kcal/mol | 0.844 ± 0.025 kcal/mol | –
SAGGSAGGSAGGGPSVPGYVAVSTEETTELVPLPTPRPALRTTTTETLPTATVTTTTLLLSAGGSAGGSAGG [r7_945_JUSTAS] | 0.63 ± 0.23 kcal/mol | – | 1.45 ± 0.06 kcal/mol
SAGGSAGGSAGGMVLTLSVDPATGLVTVTLPDGTVVTLSPEELARTPVVVQPLPGPPDTASAGGSAGGSAGG [r7_99_JUSTAS] | 1.97 ± 0.11 kcal/mol | – | 2.42 ± 0.056 kcal/mol
SMTVIEIKVKLSEEEVKELVEKLKEELPEDVEVVDIEVEEKEGYVVIKIVIKDPELSPEQLEKLRKLLEESA [r9_195_TrROS_Hall] | > 6 kcal/mol | – | 3.28 ± 0.34 kcal/mol
SAGGSAGGEERPLRIPAAPVRALARRLPPAPRLVVLARSSVPGRYYIAVIDLRTGEIRVFEADLSAGGSAGG [r6_465_TrMRF] | 2.91 ± 0.079 kcal/mol | – | 3.599 ± 0.032 kcal/mol

Sequence | folding stability dG unfold [1] | folding stability dG unfold [2] | folding stability dG unfold [3]
SAGGSAGGSAGGGLAEVELEFPVLGLRLRLVYRLEGDVPTILDAELELEPLPPLEPNLDKSAGGSAGGSAGG [r7_276_TrMRF] | 2.99 ± 0.23 kcal/mol | – | 3.74 ± 0.093 kcal/mol
SAGGSAGGSARIRFPNGYEIEVPRKRNPDGNLEITIESRNPDNPEHREMAKKIARDIADELSAGGSAGGSAG [r3_163_TrROS] | -0.526 ± 0.17 kcal/mol | – | -0.0805 ± 0.06 kcal/mol
SAGMKVTVDLTFTFAPDAVSPEEVRAALAAHGDAVEVKPDPSSDRIPVRVEVPPGREAAVRAALAAAGGSAG [r5_378_JUSTAS] | 0.783 ± 0.2 kcal/mol | – | 1.37 ± 0.082 kcal/mol
SAGGSASSITSTSLSLEETVPGDPDVVVVTRTVTTTTPLPDGSPATHTTTSSTKVVTSPEELAAASSAGGSA [r15_1019_JUSTAS] | 0.708 ± 0.058 kcal/mol | – | 1.2 ± 0.012 kcal/mol
SRPPEETLTLTFEQEIVPGDPAAVAAAIEAARAAARAALAEAGLPDVAEVRVEEVEVDPEGRVRVTVRVASA [r9_754_JUSTAS] | 0.7 ± 0.045 kcal/mol | – | 1.1 ± 0.05 kcal/mol
SAGGSAGGSAGGGAGGATSTTTSTTHLPNGTVTTTTTTTTTNADGTVTTTTTTTTTTVAASAGGSAGGSAGG [r7_125_JUSTAS] | 1.23 ± 0.059 kcal/mol | – | 1.54 ± 0.025 kcal/mol
SAMIIDVTVTLPPSDPAAEQQARDTAEAVAAAINAAGHPVAVTVLSVTREVLPDGTLRITIPIKVETAASAG [r14_48_JUSTAS] | 1.45 ± 0.11 kcal/mol | – | 1.92 ± 0.038 kcal/mol
SAGGSAGGSAMKLTKEYVFTKTITLKNGKTKTESEVLTEEVPPIPLEELIKRLGLPPEELISAGGSAGGSAG [r3_338_JUSTAS] | -0.186 ± 0.32 kcal/mol | – | -0.126 ± 0.44 kcal/mol
SAGGSAGGSAGGDPLRIRARGPDGNQQTFPFKVDDNMNLEEFADDFAPKFGAKNVEIEPSAGGSAGGSAGGS [r10_400_TrROS] | 0.74 ± 0.2 kcal/mol | – | 1.39 ± 0.072 kcal/mol
SAGGSAGGSAITSNERLGDEVVVTTKPTNKSKTSTVKPSEMPPNFPIPPDLTTSSAPASPALRSAGGSAGGS [r12_1005_JUSTAS] | 0.853 ± 0.1 kcal/mol | – | 1.46 ± 0.031 kcal/mol
SAGGSAGGSAGKEVTVEKVEVKPGMKIKILDTGKEIEVKEGEEILKDKNIKPGMKIEVEPSAGGSAGGSAGG [r17_289_TrROS_Hall] | 0.691 ± 0.056 kcal/mol | – | 1.32 ± 0.035 kcal/mol
SAGGSAGGSAGGSSARVPFPATGAVLEVRVTPDGRPRVRVFNPATGEVVEFPPGAEVGVSAGGSAGGSAGGS [r4_158_TrMRF] | 0.0259 ± 0.13 kcal/mol | – | 0.762 ± 0.036 kcal/mol
SAGGSMTVSTAPDGTLKVYDPATGKLNPLPVPPVPLVVSRSVQPDKGVVITTTTTPSGEVTVSTTALSAGGS [r16_453_JUSTAS] | -0.159 ± 0.075 kcal/mol | – | 0.394 ± 0.06 kcal/mol
SAGGSKKKIYKIKIKIEVINEETGEKKTVEIEIEAESLEEALAAIAKALLPEGQTVKIVDIEIEEVSAGGSA [r2_320_TrROS_Hall] | 3.73 ± 0.085 kcal/mol | – | 3.89 ± 0.079 kcal/mol
SAGGSAGGSRVGRLEVFPGPGRVLAYFPETGALAVVDLPPDGPARITVYRPGTGEPVVLPAPLSAGGSAGGS [r12_55_TrMRF] | 0.955 ± 0.068 kcal/mol | – | 1.58 ± 0.052 kcal/mol
SAGGSAGGSYKIDKIEVQPPPGGYYQATIEVEQVDPENGNPQRQEQEIPVPANDPKQIKDFLKSAGGSAGGS [r12_691_TrROS] | 0.174 ± 0.22 kcal/mol | – | 0.379 ± 0.16 kcal/mol
SAAAPEAVEAARAVREALERTRPIHVLVRLPDGSLRSLGPVLRLGPDIPPSVLVPALLELDADEVLIFGSAG [r14_318_TrMRF] | 0.866 ± 0.2 kcal/mol | – | 1.55 ± 0.12 kcal/mol
SAGGSANLPPGQPKIITITIPLGEEVRNPDGEPMTPEDIADNFQERFGNIEVEKSPNGWLEVTFWLSAGGSA [r15_645_TrROS] | 1.18 ± 0.19 kcal/mol | – | 0.637 ± 0.15 kcal/mol
SAGGSAGGSAGGKSIPIEELAARFAPEGEANAVNTETGEVVVITLPPETGEAKPRVFPASAGGSAGGSAGGS [r10_777_TrMRF] | 0.718 ± 0.1 kcal/mol | – | 1.05 ± 0.054 kcal/mol
SAEREVTVTRTRRRDGRRTVTETRRVRVRLRLRVTLPDGRELTVELPPALRALSPELQEAARRLAEALLSAG [r14_555_TrROS_Hall] | 2.15 ± 0.071 kcal/mol | – | 2.76 ± 0.053 kcal/mol
SALEALLAAAREAAAAGLEEVEVELPLPGERSLRARFRVERRDGAPVRIEVELEYYDAGGRRTPRRLELTLS [r1_254_JUSTAS] | 2.63 ± 0.053 kcal/mol | – | 3.19 ± 0.043 kcal/mol
SAGGSPAPVRRTVTQLLKVGDKLETRVVEEVVWVPEPPPPPVIPIPEDRGLNEEPVPGTRELTFDAGSAGGS [r8_28_JUSTAS] | -0.195 ± 0.37 kcal/mol | – | 0.268 ± 0.19 kcal/mol
SAGGSAGGSAGDKKRKERTIEMRNPDNGQEWEIEIPEGLPPDEFKPGQPISMNEIRDAIGSAGGSAGGSAGG [r17_412_TrROS] | 0.389 ± 0.24 kcal/mol | – | 1.03 ± 0.13 kcal/mol

Record cards, as listed above.
SAGGSPAPVRRTVTQLLKVGDKLETRVVEEVVWVPEPPPPPVIPIPEDRGLNEEPVPGTRELTFDAGSAGGS [r8_28_JUSTAS] in the list: folding stability dG unfold [1]: -0.195 ± 0.37 kcal/mol; folding stability dG unfold [3]: 0.268 ± 0.19 kcal/mol
SAGGSAGGSYKIDKIEVQPPPGGYYQATIEVEQVDPENGNPQRQEQEIPVPANDPKQIKDFLKSAGGSAGGS [r12_691_TrROS] in the list: folding stability dG unfold [1]: 0.174 ± 0.22 kcal/mol; folding stability dG unfold [3]: 0.379 ± 0.16 kcal/mol
SAAAPEAVEAARAVREALERTRPIHVLVRLPDGSLRSLGPVLRLGPDIPPSVLVPALLELDADEVLIFGSAG [r14_318_TrMRF] in the list: folding stability dG unfold [1]: 0.866 ± 0.2 kcal/mol; folding stability dG unfold [3]: 1.55 ± 0.12 kcal/mol
